Assay results: PMC6126813
Results are given in words; binding and its absence hold for the method and conditions named. Where a sequence is shown, tags or fusion partners need not be part of it.

B1: Pseudomonas aeruginosa recombinant A-type flagellin (rFlaA) from strain PAK (protein, UniProt P21184 1-394)
chain: MALTVNTNIASLNTQRNLNNSSASLNTSLQRLSTGSRINSAKDDAAGLQIANRLTSQVNGLNVATKNANDGISLAQTAEGALQQSTNILQRMRDLSLQSANGSNSDSERTALNGEVKQLQKELDRISNTTTFGGRKLLDGSFGVASFQVGSAANEIISVGIDEMSAESLNGTYFKADGGGAVTAATASGTVDIAIGITGGSAVNVKVDMKGNETAEQAAAKIAAAVNDANVGIGAFSDGDTISYVSKAGKDGSGAITSAVSGVVIADTGSTGVGTAAGVTPSATAFAKTNDTVAKIDISTAKGAQSAVLVIDEAIKQIDAQRADLGAVQNRFDNTINNLKNIGENVSAARGRIEDTDFAAETANLTKNQVLQQAGTAILAQANQLPQSVLSLLR
B2: Pseudomonas aeruginosa recombinant B-type flagellin (rFlaB) from strain PAO1, P72151 1-488 (protein)
chain: MALTVNTNIASLNTQRNLNASSNDLNTSLQRLTTGYRINSAKDDAAGLQISNRLSNQISGLNVATRNANDGISLAQTAEGALQQSTNILQRIRDLALQSANGSNSDADRAALQKEVAAQQAELTRISDTTTFGGRKLLDGSFGTTSFQVGSNAYETIDISLQNASASAIGSYQVGSNGAGTVASVAGTATASGIASGTVNLVGGGQVKNIAIAAGDSAKAIAEKMDGAIPNLSARARTVFTADVSGVTGGSLNFDVTVGSNTVSLAGVTSTQDLADQLNSNSSKLGITASINDKGVLTITSATGENVKFGAQTGTATAGQVAVKVQGSDGKFEAAAKNVVAAGTAATTTIVTGYVQLNSPTAYSVSGTGTQASQVFGNASAAQKSSVASVDISTADGAQNAIAVVDNALAAIDAQRADLGAVQNRFKNTIDNLTNISENATNARSRIKDTDFAAETAALSKNQVLQQAGTAILAQANQLPQAVLSLLR

Experiments:
[1] = target: Pseudomonas aeruginosa recombinant A-type flagellin (rFlaA) from strain PAK (Pseudomonas aeruginosa PAK) (UniProt P21184); assay: SEC; HPLC-SEC of the purified recombinant flagellin (column and buffer are told for the polysaccharides: Biosep SEC4000, 1 mL/min, PBS / 0.02% sodium azide pH 7.4); both purified
[2] = target: T1, Pseudomonas aeruginosa recombinant B-type flagellin (rFlaB) from strain PAO1 (Pseudomonas aeruginosa PAO1), P72151; assay: as above; conditions: remark: other sources report otherwise
T1 chain: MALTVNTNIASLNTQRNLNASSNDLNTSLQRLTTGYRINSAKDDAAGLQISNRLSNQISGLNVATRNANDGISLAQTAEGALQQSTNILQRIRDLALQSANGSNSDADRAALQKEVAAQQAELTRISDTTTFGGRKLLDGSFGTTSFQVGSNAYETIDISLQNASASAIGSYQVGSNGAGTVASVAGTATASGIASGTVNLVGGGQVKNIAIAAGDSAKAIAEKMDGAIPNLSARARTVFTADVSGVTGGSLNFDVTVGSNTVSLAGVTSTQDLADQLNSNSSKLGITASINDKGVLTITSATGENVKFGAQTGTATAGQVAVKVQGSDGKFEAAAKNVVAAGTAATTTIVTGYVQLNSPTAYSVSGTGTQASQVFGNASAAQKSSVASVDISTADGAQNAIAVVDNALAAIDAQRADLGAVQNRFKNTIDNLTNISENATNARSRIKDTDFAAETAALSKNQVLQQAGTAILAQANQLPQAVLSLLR

| Binder | binding [1] | binding [2] |
| --- | --- | --- |
| B1 | no binding |  |
| B2 |  | no binding |
